Measured values from PubChem BioAssay AID2685 (National Center for Advancing Translational Sciences (NCATS), 2010).
Some of the results follow. The main result of the screen is listed elsewhere. These columns were measured beside it and carry no call. The list favours compounds with an active or inconclusive main result. Words in brackets tell the shape of the fitted curve; partial curves, single points and poor fits give uncertain potencies.

Test: qHTS Assay for Lipid Storage Modulators in Drosophila S3 Cells;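 for cell number change: cells counted by Cell Tracker Red CMTPX staining in the red channel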
Details: BODIPY lipid droplet fluorescence, 18-24 h; for cell number change: measured here: cell count max response, cells fed with added oleic acid
How it was run: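 Drosophila S3 cells loaded with oleic acid (400 uM, as added) and compounds at several concentrations; lipid droplets imaged by 488-nm laser-scanning cytometry, 500–530 nm intensity and object ratio to cell channel. Percent activity normalized to 20 uM Triacsin C.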

[1] = measured here: cell number channel AC50, cells fed with added oleic acid
[2] = measured here: lipid fluorescence (Fed channel) AC50, cells fed with added oleic acid

Row | Structure (SMILES) | cell number change | AC50 [1] | AC50 [2]
1 | CC(=O)N1CCN(Cc2nc3cc(NC(=O)COc4cccc(C)c4)ccc3n2C)CC1 | 24.8% | 5.17 nM [rising, full curve, poor fit] | 6510 nM [falling, single point]
2 | COC(=O)c1ccccc1NC(=O)CN1C(=O)NC2(CCCCCCC2)C1=O | 9.96% |  | 4110 nM [rising, full curve, poor fit]
3 | O=C(Cc1cccc(C(F)(F)F)c1)Nc1cc(S(=O)(=O)N2CCOCC2)ccc1N1CCCC1 | -13.7% |  | 651 nM [falling, single point]
4 | CCCCNS(=O)(=O)NC(=O)C1=C(N2CCCC2)COC1=O | 8.9% |  | 5.17 nM [rising, full curve, poor fit]
5 | CCNC(=S)N1C2CCC1CC(NC(=O)Nc1ccc(C(=O)OCC)cc1)C2 (configuration not stated) | 29.6% |  | 16400 nM [rising, partial curve]
6 | Brc1cc2c(cc1Br)OCCOCCOCCO2 | 13.7% |  | 25900 nM [rising, single point]
7 | O=C(NCc1ccccn1)Nc1cccc(Cl)c1Cl | -2.31% |  | 
8 | CCO[C@@H]1OC(C(=O)NC2CC2)=C[C@H](C2CC2)[C@H]1CCCO |  | 146 nM [falling, full curve, poor fit] | 
9 | Cc1nnc(NC(=O)CCCOc2ccccc2)s1 | 12.3% |  | 29100 nM [rising, single point]
10 | COc1ccc(NC(=O)CN(C)S(=O)(=O)c2ccc(Br)s2)cc1 | 31.1% | 32600 nM [rising, single point] | 231 nM [falling, full curve, poor fit]
11 | COC(=O)C(Cc1ccccc1)OS(N)(=O)=O (configuration not stated) | 21% |  | 1160 nM [rising, full curve]
12 | O=C(CSc1nc2ccccc2c(=O)n1-c1ccccc1)NC(=O)CN1CCCC1=O | 1.71% |  | 6510 nM [rising, single point]
13 | Cc1ccc(C)c(S(=O)(=O)N2CCCCC2CCNC(=O)C(=O)NC2CCCC2)c1 (configuration not stated) | -14.9% |  | 2590 nM [rising, single point]
14 | CC(=O)Nc1ccc(S(=O)(=O)NCCS(=O)(=O)N2CCN(c3ccccc3F)CC2)cc1 | -6.92% |  | 
15 | Cc1cc(-c2ccccc2)nc(N(C)NC(=O)c2cccc(C(F)(F)F)c2)c1S(C)(=O)=O |  | 1840 nM [rising, partial curve] | 2060 nM [rising, partial curve]
16 | COc1ccc(/C=C/C(=O)c2ccc(Cl)s2)cc1O | 10.1% |  | 146 nM [falling, full curve]
17 | COc1ccccc1Nc1nc(-c2ccccc2O)nc2ccccc12 | 9.54% |  | 46.1 nM [rising, partial curve, poor fit]
18 | COc1ccc(Cl)cc1NC(=O)CN(C)C(=O)c1cc2c(s1)CCCC2 |  | 6510 nM [rising, single point] | 
19 | COc1ccc2nc(NC(=O)c3cc(S(=O)(=O)N4CCOCC4)ccc3C)sc2c1 | 25.5% | 4110 nM [rising, full curve, poor fit] | 
20 | CC(=O)c1ccc(N=Nc2ccc(C)cc2)cc1 | -77.8% | 1160 nM [falling, partial curve] | 29100 nM [falling, single point]

Look-ups from the entries so far.
AC50 [1] with CCO[C@@H]1OC(C(=O)NC2CC2)=C[C@H](C2CC2)[C@H]1CCCO reads 146 nM [falling, full curve, poor fit]
AC50 [2] with COc1ccccc1Nc1nc(-c2ccccc2O)nc2ccccc12 reads 46.1 nM [rising, partial curve, poor fit]
cell number change with COC(=O)C(Cc1ccccc1)OS(N)(=O)=O (configuration not stated) reads 21%
AC50 [2] with O=C(Cc1cccc(C(F)(F)F)c1)Nc1cc(S(=O)(=O)N2CCOCC2)ccc1N1CCCC1 reads 651 nM [falling, single point]
AC50 [2] with Cc1cc(-c2ccccc2)nc(N(C)NC(=O)c2cccc(C(F)(F)F)c2)c1S(C)(=O)=O reads 2060 nM [rising, partial curve]

(further entries)

Row | Structure (SMILES) | cell number change | AC50 [1] | AC50 [2]
21 | COc1ccc(NC(=O)c2ccc(NC(=O)CCS(=O)(=O)c3cccs3)cc2)cc1 | 23.9% |  | 18400 nM [falling, partial curve]
22 | Cc1cccc(C)c1NC(=O)CNC(=O)c1ccc(COc2ccccc2)o1 | -20.9% | 820 nM [falling, full curve, poor fit] | 651 nM [falling, full curve, poor fit]
23 | COc1ccccc1NC(=O)CSCc1ccc([N+](=O)[O-])cc1 | -18.2% |  | 5170 nM [falling, full curve, poor fit]
24 | Cc1cc(S(=O)(=O)NCc2ccccc2)ccc1OCC(=O)NCC1CCCO1 (configuration not stated) | -2.87% | 731 nM [falling, full curve, poor fit] | 23100 nM [falling, partial curve]
25 | Clc1ccc(-c2csc(N3CCC(c4ccccc4)C3)n2)cc1 (configuration not stated) | -28% |  | 
26 | N#Cc1nc(COc2cccc(Cl)c2)oc1NCc1ccncc1 |  | 3660 nM [falling, single point] | 1160 nM [rising, single point]
27 | Cc1ccc(S(=O)(=O)N(c2nc(NC(C)C)nc(NC(C)C)n2)n2cnnc2)cc1 | 8.53% |  | 184 nM [falling, partial curve]
28 | CC(C)(C)N(NC(=O)Nc1ccccc1)C(=O)c1ccccc1 | -83.3% |  | 146 nM [falling, full curve, poor fit]
29 | Oc1c(Cl)cc(Cl)cc1CNn1cnnc1 | 10.3% |  | 
30 | NS(=O)(=O)c1ccc(CCNC(=O)CCCn2c(=O)[nH]c3ccc(Br)cc3c2=O)cc1 | 44.1% | 7310 nM [rising, partial curve] | 
31 | O=C(NC1CCCc2ccccc21)C1CCN(S(=O)(=O)c2cccc(C(F)(F)F)c2)CC1 (configuration not stated) | -1.77% |  | 11600 nM [rising, partial curve, poor fit]
32 | O=C(Nc1nnc(-c2ccc(Cl)cc2)o1)Nc1ccccc1F | 7.09% |  | 13000 nM [rising, partial curve, poor fit]
33 | CC(=O)NCc1ccc(S(=O)(=O)NC(C(=O)O)C(C)C)cc1 (configuration not stated) | -36.2% | 231 nM [falling, full curve, poor fit] | 
34 | CS(=O)(=O)N(CCC#N)Cc1ccc(C=O)o1 | -18.4% | 3660 nM [falling, single point] | 14600 nM [falling, single point]
35 | CCc1c(C)[nH]n(-c2nc(-c3cccc([N+](=O)[O-])c3)cs2)c1=O | 11% |  | 4.11 nM [rising, full curve, poor fit]
36 | O=C1/C(=N\S(=O)(=O)c2cccs2)C([n+]2ccccc2)=C([O-])c2ccccc21 |  |  | 14600 nM [falling, partial curve]
37 | O=C(c1cccc([N+](=O)[O-])c1)c1ccc2c(c1)OCCOCCOCCOCCO2 | 10.5% |  | 651 nM [rising, full curve, poor fit]
38 | Cc1nnc(C)n1/N=C/c1cccnc1 | -13.9% |  | 16400 nM [falling, partial curve]
39 | CCOC(=O)COn1c2c(c3c4no[n+]([O-])c4ccc31)CCCC2 | 8.76% |  | 
40 | Cc1cc(NS(=O)(=O)c2ccc(NC(=S)NC(=O)c3ccc(C(C)(C)C)cc3)cc2)no1 | 17.4% |  | 16400 nM [rising, single point]

Row | Structure (SMILES) | cell number change | AC50 [1] | AC50 [2]
41 | C=CCn1c(N2C(=O)CC(Cc3ccccc3)C2=O)nc2ccccc21 (configuration not stated) |  |  | 1300 nM [rising, full curve]
42 | O=C(CSc1nnc(-c2ccccc2)o1)N1CCc2ccccc2C1 |  | 6510 nM [rising, single point] | 
43 | COc1ccc(CCNC(=O)CSc2nc3[nH]ncc3c(=O)n2-c2ccc(C)c(Cl)c2)cc1OC | -17.2% |  | 32600 nM [falling, single point]
44 | CC1=C(C(=O)Nc2ccc(C(=O)NC(C)c3ccccc3)cc2)SCCO1 (configuration not stated) | 7.49% |  | 
45 | COC(=O)CCNC(=O)c1ccc2[nH]c(C)c(C)c2c1 | 24.5% |  | 6510 nM [rising, single point]
46 | COc1cccc(NC(=O)COC(=O)c2c(NC(C)=O)sc(C)c2C)c1 | -32.4% | 29100 nM [falling, single point] | 
47 | CCOC(=O)N1CCN(C(=O)c2c(-c3c(Cl)cccc3Cl)noc2C)CC1 | 34.8% | 32600 nM [rising, partial curve, poor fit] | 
48 | CCOc1ccc2nc(N(CCCN(C)C)C(=O)c3ccc(S(=O)(=O)N4CCCC4)cc3)sc2c1 | 5.39% |  | 411 nM [rising, single point]
49 | CC(=O)N(C)c1ccc(NC(=O)N2CCOCC2)cc1 | -6.04% |  | 6510 nM [rising, partial curve, poor fit]
50 | Cc1c(/C=N/NC(=O)c2ccccc2O)c2ccccn2c1C(=O)c1ccc(F)cc1 | 41.9% | 2310 nM [rising, partial curve] | 1640 nM [rising, partial curve]
51 | Nc1nncn1C(=O)c1c(Cl)cccc1Cl | -1.75% |  | 
52 | COc1ccc(C(CNC(=O)Cc2ccc(-c3ccccc3)cc2)N(C)C)cc1 (configuration not stated) | 33.1% | 32600 nM [rising, single point] | 
53 | CCOc1ccc2[nH]c(S(=O)(=O)CC)nc2c1Cl | 0.128% |  | 1460 nM [falling, partial curve]
54 | CCN1CCN(CC(=O)Nc2ccc(Cl)c(Cl)c2)C(=O)C1=O | 17.3% | 206 nM [rising, full curve, poor fit] | 18400 nM [falling, single point]
55 | O=C(CN(Cc1ccco1)C(=O)c1ccc(N2CCCC2=O)cc1)Nc1ccccc1C(F)(F)F |  | 1640 nM [rising, partial curve] | 130 nM [rising, single point]
56 | O=C(CCc1ccccc1)Nc1ccccc1F | -4.34% |  | 1460 nM [falling, full curve]
57 | O=C(CSc1nnc2scc(-c3ccccc3)n12)Nc1nsc(-c2ccccc2)n1 |  |  | 146 nM [rising, full curve, poor fit]
58 | CCCCC(C(=O)NC(C)(C)C)N(Cc1ccccc1Cl)C(=O)c1snc(C(N)=O)c1N (configuration not stated) | -19.4% |  | 
59 | Cc1ccc(CONC(=O)c2ccccc2)cc1 | -0.292% |  | 651 nM [falling, full curve, poor fit]
